From patent US6723556 come the findings set out here.

Amino acid sequences for entries named in this document (tags omitted). A change or cut given only in a name is not applied to a line headed by its entry. Residues count along the entry.
UniProt Q28005, residues 27-701: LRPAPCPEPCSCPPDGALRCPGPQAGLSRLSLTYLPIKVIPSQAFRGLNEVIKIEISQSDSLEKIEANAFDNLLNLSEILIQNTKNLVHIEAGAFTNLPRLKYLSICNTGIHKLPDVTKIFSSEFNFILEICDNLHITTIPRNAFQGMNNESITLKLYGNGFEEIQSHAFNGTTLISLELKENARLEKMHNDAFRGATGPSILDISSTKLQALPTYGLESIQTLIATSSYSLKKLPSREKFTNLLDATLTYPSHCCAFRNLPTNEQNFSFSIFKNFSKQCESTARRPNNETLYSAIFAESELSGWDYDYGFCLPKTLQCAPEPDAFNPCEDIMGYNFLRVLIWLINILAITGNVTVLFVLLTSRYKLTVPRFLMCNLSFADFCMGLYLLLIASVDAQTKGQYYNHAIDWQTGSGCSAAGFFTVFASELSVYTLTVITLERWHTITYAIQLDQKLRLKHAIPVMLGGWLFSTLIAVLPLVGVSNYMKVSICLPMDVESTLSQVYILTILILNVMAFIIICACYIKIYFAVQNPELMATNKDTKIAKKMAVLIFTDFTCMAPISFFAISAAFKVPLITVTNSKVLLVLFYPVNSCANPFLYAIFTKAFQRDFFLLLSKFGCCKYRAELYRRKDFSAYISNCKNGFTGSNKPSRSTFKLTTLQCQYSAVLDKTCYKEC
UniProt P01215: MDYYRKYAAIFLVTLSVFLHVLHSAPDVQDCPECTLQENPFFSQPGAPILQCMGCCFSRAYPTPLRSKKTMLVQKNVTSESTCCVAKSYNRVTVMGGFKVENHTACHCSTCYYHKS

The target of this test is purified LH-hCG receptor of bovine corpora lutea (detergent-solubilised) (bovine) (UniProt Q28005). Kind of test: affinity chromatography of the receptor on hCG coupled to Sepharose-4B.

Results are given in words; binding and its absence hold for the method and conditions named. Some entries that bind do so weakly or less than the wild type.

Regarding “human chorionic gonadotropin (hCG) (from UniProt P01215 25-116; P0DN86 21-165) (ligand)”, the binding entry is given as “binds”.
